Taken from: PubChem BioAssay AID1259308 (NCATS, 2017)

- Assay: 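Knock-downs that increase output of a recombinant reporter protein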 (primary screen)
- System: human HEK293 embryonic kidney cells stably expressing firefly luciferase (HEK-CMV-Luc2-Hygro)
- Reagent: single siRNA against human genes, 0.8 pmol siRNA per well
- Time to read-out: 72 h
- Detection: 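Reporter luminescence and viable-cell signal on separate replicate plates, given as percent of non-targeting control and median/MAD z-scores, plus per-cell luciferase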
- Reading the numbers: total luciferase, z-score and total luciferase, % of control: higher = more reporter protein produced; luciferase per cell, z-score: higher = more reporter output per viable cell; viable cells, % of control: higher = more viable cells
- Active means: 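An siRNA counts as active if its total luciferase robust z-score exceeds 3; genes with two or more such siRNAs out of three were retested with fresh siRNAs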
- Meaning of the calls: active = raised luciferase; inactive = no rise
In all, the deposit lists about 59,000 reagents; shown is an unselected part. In the full data, about 1,510 (2.6%) were called active. 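Calls use total luciferase alone and ignore viability, so some active siRNAs may act by altering cell number.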 A number with no mark means an inactive call. The numbers tell different reagents against one gene apart.

gene | siRNA no. | total luciferase, z-score | total luciferase, % of control | luciferase per cell, z-score | viable cells, % of control
BLMH (GeneID 642) | 1 | 0.0866 | 83.6 | 0.967 | 72.4
BLMH (GeneID 642) | 2 | -0.892 | 64.1 | -1.16 | 97.3
BLMH (GeneID 642) | 3 | 1.43 | 110 | 1.66 | 79.6
MAP3K7 (GeneID 6885) | 1 | 0.65 | 94.8 | 0.672 | 88.8
MAP3K7 (GeneID 6885) | 2 | -0.366 | 74.6 | 0.00715 | 83.2
MAP3K7 (GeneID 6885) | 3 | 0.181 | 85.5 | -0.274 | 103
CCNB1IP1 (GeneID 57820) | 1 | 0.557 | 93 | 0.627 | 88.1
CCNB1IP1 (GeneID 57820) | 2 | -1.01 | 61.8 | -1.2 | 94.6
CCNB1IP1 (GeneID 57820) | 3 | 0.545 | 92.7 | 0.21 | 98
TBC1D29P (GeneID 26083) | 1 | -0.977 | 62.5 | -0.881 | 88
TBC1D29P (GeneID 26083) | 2 | 0.128 | 84.4 | 1.41 | 65.2
TBC1D29P (GeneID 26083) | 3 | -0.551 | 70.9 | -0.407 | 88.2
POU2AF1 (GeneID 5450) | 1 | -0.192 | 78.1 | -0.0449 | 88.3
POU2AF1 (GeneID 5450) | 2 | -1.12 | 59.6 | 1.19 | 48.7
POU2AF1 (GeneID 5450) | 3 | 0.522 | 92.3 | 1.41 | 71.2
FLT1 (GeneID 2321) | 1 | 0.584 | 93.5 | 1.58 | 68.9
FLT1 (GeneID 2321) | 2 | 1.44 | 111 | 0.827 | 99.4
FLT1 (GeneID 2321) | 3 | 0.253 | 86.9 | -0.651 | 115
PRDM2 (GeneID 7799) | 1 | 0.393 | 89.7 | -0.0215 | 101
PRDM2 (GeneID 7799) | 2 | 1.96 | 121 | 1.35 | 94.7
PRDM2 (GeneID 7799) | 3 | -0.44 | 73.1 | -0.605 | 95.8
NACAD (GeneID 23148) | 1 | 0.297 | 87.8 | 0.328 | 90
NACAD (GeneID 23148) | 2 | 0.418 | 90.2 | 1.01 | 77.2
NACAD (GeneID 23148) | 3 | 0.11 | 84.1 | 0.405 | 84.4

Sorted by “total luciferase, % of control” (lowest first): some entries from above.
gene | siRNA no. | total luciferase, z-score | total luciferase, % of control | luciferase per cell, z-score | viable cells, % of control
FLT1 (GeneID 2321) | 3 | 0.253 | 86.9 | -0.651 | 115
PRDM2 (GeneID 7799) | 1 | 0.393 | 89.7 | -0.0215 | 101
